Results published in PubChem BioAssay AID1487 (National Center for Advancing Translational Sciences (NCATS), 2009).
Values joined by “and” are separate entries in the source; they are usually repeats but may differ in a detail not shown here. Equal entries are not always repeated. Some of the results follow. Shown are side measurements of this screen, not its main read-out; they come without a call. Most of these compounds were active or inconclusive in the main read-out, so they are no random draw. Words in brackets tell the shape of the fitted curve; partial curves, single points and poor fits give uncertain potencies.

Assay: qHTS Assay for Modulators of Lamin A Splicing
Conditions: HeLa LMNA splicing GFP/RFP minigene ratio, 48 h
Outline: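 S3 HeLa cells stably expressing lamin A-EGFP splicing minigene plus DsRed2, 600 cells/well, 48 h compound exposure at 37C. Laser-scanning cytometry; analysed as GFP (500-530 nm)/RFP (575-640 nm) total intensity ratio; 0.5% DMSO vehicle.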

[1] = measured here: GFP splicing reporter channel
[2] = measured here: RFP viability control channel

Row | Compound | AC50 [1] | AC50 [2]
1 | COc1ccccc1/C=C/C(=O)NCCC1=CCCCC1 | 1.58 µM [falling, full curve, poor fit] | –
2 | COc1ccc(NS(=O)(=O)c2ccc3c(c2)NC(=O)CO3)cc1 | – | 35.5 µM [rising, single point]
3 | CN(C)/N=C/c1cc(Cl)cc([N+](=O)[O-])c1O | 11.2 µM [rising, single point] | 20 µM [rising, partial curve]
4 | Cc1cccc(C)c1OCC(=O)Nc1ccc(NC(=O)c2ccco2)cc1 | 3.55 µM [falling, full curve] | 3.98 µM [falling, full curve]
5 | CCOc1cc(-c2nnc(SCC(=O)NCCCOC)nc2-c2ccc(OC)c(OCC)c2)ccc1OC | – | 35.5 µM [rising, single point]
6 | CCOC(=O)/C(C#N)=C/c1cc2ccc(C)cc2nc1Cl | 22.4 µM [rising, single point] | 12.6 µM [rising, partial curve, poor fit]
7 | O=C(Nc1ccccc1Br)C1CCN(C(=O)Cc2ccccc2)CC1 | 1.78 µM [rising, full curve, poor fit] | –
8 | O=C(NCc1ccccc1Cl)c1cccc(NC(=O)c2ccccc2)c1 | – | 35.5 µM [rising, single point]
9 | Cc1nc2ccc(NC(=O)CCS(=O)(=O)c3ccc(Cl)cc3)cc2s1 | 12.6 µM [rising, partial curve, poor fit] | 12.6 µM [rising, partial curve]
10 | O=C1c2ccc3c4c(ccc(c24)C(=O)N1c1ccc2ccccc2c1)CC3 | 14.1 µM [falling, partial curve, poor fit] | –
11 | CCCSc1ccc(-c2nn(-c3ccccc3)cc2/C=C(/C#N)C(=O)N2CCOCC2)cc1 | – | 10 µM [rising, partial curve]
12 | CCCCC[C@H](CC(=O)NO)C(=O)N[C@H](C(=O)N1CCC[C@H]1CO)C(C)C | 0.00562 µM [falling, full curve, poor fit] | 14.1 µM [rising, partial curve, poor fit]
13 | Cc1ccccc1C(=O)N/N=C/c1ccc(OCC(=O)N2CCCCC2)cc1 | 1.41 µM [falling, full curve, poor fit] | 1 µM [falling, full curve, poor fit]
14 | COc1cccc(-n2nnnc2SCC(=O)Nc2nc3c(s2)CCCC3)c1 | – | 17.8 µM [rising, single point]
15 | N#CC1=C(N)n2c(s/c(=C\c3cccs3)c2=O)=C(C#N)C1c1cccs1 (centres undefined) | – | 35.5 µM [rising, single point]
16 | O=C(NCc1ccc(F)cc1)c1ccc(N2CCc3ccccc32)c([N+](=O)[O-])c1 | 35.5 µM [rising, single point] | 22.4 µM [rising, partial curve]
17 | COc1ccc2[nH]cc(CCNc3ncncc3-c3ccc4c(c3)OCO4)c2c1 | 3.16 µM [falling, full curve, poor fit] | 2.51 µM [falling, full curve, poor fit]

Row | Compound | AC50 [1] | AC50 [2]
18 | COc1ccc(C(CNC(=O)c2ccc(S(=O)(=O)N3CCOCC3)cc2)N2CCCCC2)cc1 (centres undefined) | 10 µM [rising, single point] | –
19 | CC(C)OCC1CC(CC(=O)NC(=S)Nc2cccc([N+](=O)[O-])c2)C(=O)O1 (centres undefined) | 15.8 µM [rising, partial curve] | 25.1 µM [rising, single point]
20 | COc1ccc(CNc2nc3ccccc3n2Cc2ccc(Cl)cc2)cc1OC | 6.31 µM [rising, single point] | 11.2 µM [rising, partial curve]
21 | COc1cccc(NC(=O)Nc2ccc3c(c2)nc(C)n3C)c1 | 0.01 µM [falling, full curve, poor fit] | 0.01 µM [falling, full curve]
22 | COc1cccc(Cn2c(=O)c(-c3ccc(F)cc3)nc3cnc(N4CCOCC4)nc32)c1 | – | 7.08 µM [falling, full curve, poor fit]
23 | CCc1ccc(NC(=O)CSc2nc3ccccc3c(=O)n2CCC(=O)NC2CCCCC2)cc1 | 4.47 µM [falling, single point] | –
24 | CC(=O)C1=C(C)NC(SCc2cccc3ccccc23)=C(C#N)C1c1ccco1 (centres undefined) | 14.1 µM [rising, single point] | 17.8 µM [rising, partial curve]
25 | CCc1ccc(-c2nc(CN3CCC(C(=O)N4CCN(c5ccccc5)CC4)CC3)c(C)o2)cc1 | 12.6 µM [rising, partial curve] | 35.5 µM [rising, single point]
26 | Cc1nccn1-c1cc(C(C)(C)C)nc2c(-c3ccccc3)cnn12 | – | 0.00398 µM [rising, full curve, poor fit]
27 | O=C(NC(=O)N1CCOCC1)c1ccccc1 | 0.0126 µM [falling, full curve, poor fit] | –
28 | Brc1cccc(CNCCCN2CCOCC2)c1 | 35.5 µM [falling, single point] | –
29 | S=C(NCc1ccco1)Nc1ccc(Br)cc1Cl | 0.00562 µM [falling, full curve, poor fit] | 0.00447 µM [falling, full curve, poor fit]
30 | N#Cc1cc2c(nc1SCC(=O)N1CCCCC1)CCCCC2 | 15.8 µM [rising, partial curve] | –
31 | COc1cc2[nH]c(=S)n(Cc3cccs3)c(=O)c2cc1OC | – | 5.01 µM [rising, full curve, poor fit]
32 | Oc1c(Cl)cc(Cl)cc1Sc1cc(Cl)cc(Cl)c1O | 6.31 µM [rising, single point] | 5.62 µM [rising, single point] and 3.16 µM [rising, single point]
33 | Cc1ccccc1OCC(=O)NC(=S)Nc1ccc(Br)c(C)n1 | 3.98 µM [rising, partial curve, poor fit] | –
34 | CNC(=O)NC1CCCCc2sccc21 (centres undefined) | – | 5.62 µM [falling, partial curve]

An excerpt of these results, in markdown.

| Row | Compound | AC50 [1] | AC50 [2] |
| --- | --- | --- | --- |
| 29 | S=C(NCc1ccco1)Nc1ccc(Br)cc1Cl | 0.00562 µM [falling, full curve, poor fit] | 0.00447 µM [falling, full curve, poor fit] |
| 30 | N#Cc1cc2c(nc1SCC(=O)N1CCCCC1)CCCCC2 | 15.8 µM [rising, partial curve] | – |
